Where a name gives a salt, the structure may show the parent alone. Some of the results follow. The calls rarely recur for the same compound in another form.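 In K562 cells expressing nanoluciferase-fused kinases, luminescence was recorded at 4 h intervals between 2 and 18 h, normalized as percent of control with DMSO at 100% and a positive control at 0%. A significant (2 sigma) signal drop marks a time point as decreased. The authors' rule for a hit is not shown and takes in more than the number of time points.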
Tests used:
Assay in all cases: number of time points (of 5) at which kinase-Nluc abundance scored as decreased, DMSO-normalised (count); higher = more persistent destabilization
Conditions in all cases: K562; 2-18 h
EGFR_L861Q = EGFR_L861Q (UniProt P00533)
EGFR_T790M = EGFR_T790M (UniProt P00533)
EPHA2 = EPHA2 (UniProt P29317)
ERBB3 = ERBB3 (UniProt P21860)
[1] = biological target: ERBB4_R711C (clone: ERBB4_mut) (UniProt Q15303)
ERN1 = ERN1 (UniProt O75460)
FGFR1 = FGFR1 (UniProt P11362)
FGFR2 = FGFR2 (UniProt P21802)
FGFR3 = FGFR3 (UniProt P22607)
FGR = FGR (UniProt P09769)
FLT3 = FLT3 (UniProt P36888)
FYN = FYN (UniProt P06241)
GSK3A = GSK3A (UniProt P49840)
HER2 = HER2 (UniProt P04626)
INSRR = INSRR (UniProt P14616)
IRAK3 = IRAK3 (UniProt Q9Y616)
JAK1 = JAK1 (UniProt P23458)
LCK = LCK (UniProt P06239)
LIMK1 = LIMK1 (UniProt P53667)
LIMK2 = LIMK2 (UniProt P53671)

Protein sequences, listed by entry. Tags and fused reporters are not part of them. Lines headed by an entry give the natural chain unless they say otherwise; changes in a name come on top.
UniProt P21860, whole entry: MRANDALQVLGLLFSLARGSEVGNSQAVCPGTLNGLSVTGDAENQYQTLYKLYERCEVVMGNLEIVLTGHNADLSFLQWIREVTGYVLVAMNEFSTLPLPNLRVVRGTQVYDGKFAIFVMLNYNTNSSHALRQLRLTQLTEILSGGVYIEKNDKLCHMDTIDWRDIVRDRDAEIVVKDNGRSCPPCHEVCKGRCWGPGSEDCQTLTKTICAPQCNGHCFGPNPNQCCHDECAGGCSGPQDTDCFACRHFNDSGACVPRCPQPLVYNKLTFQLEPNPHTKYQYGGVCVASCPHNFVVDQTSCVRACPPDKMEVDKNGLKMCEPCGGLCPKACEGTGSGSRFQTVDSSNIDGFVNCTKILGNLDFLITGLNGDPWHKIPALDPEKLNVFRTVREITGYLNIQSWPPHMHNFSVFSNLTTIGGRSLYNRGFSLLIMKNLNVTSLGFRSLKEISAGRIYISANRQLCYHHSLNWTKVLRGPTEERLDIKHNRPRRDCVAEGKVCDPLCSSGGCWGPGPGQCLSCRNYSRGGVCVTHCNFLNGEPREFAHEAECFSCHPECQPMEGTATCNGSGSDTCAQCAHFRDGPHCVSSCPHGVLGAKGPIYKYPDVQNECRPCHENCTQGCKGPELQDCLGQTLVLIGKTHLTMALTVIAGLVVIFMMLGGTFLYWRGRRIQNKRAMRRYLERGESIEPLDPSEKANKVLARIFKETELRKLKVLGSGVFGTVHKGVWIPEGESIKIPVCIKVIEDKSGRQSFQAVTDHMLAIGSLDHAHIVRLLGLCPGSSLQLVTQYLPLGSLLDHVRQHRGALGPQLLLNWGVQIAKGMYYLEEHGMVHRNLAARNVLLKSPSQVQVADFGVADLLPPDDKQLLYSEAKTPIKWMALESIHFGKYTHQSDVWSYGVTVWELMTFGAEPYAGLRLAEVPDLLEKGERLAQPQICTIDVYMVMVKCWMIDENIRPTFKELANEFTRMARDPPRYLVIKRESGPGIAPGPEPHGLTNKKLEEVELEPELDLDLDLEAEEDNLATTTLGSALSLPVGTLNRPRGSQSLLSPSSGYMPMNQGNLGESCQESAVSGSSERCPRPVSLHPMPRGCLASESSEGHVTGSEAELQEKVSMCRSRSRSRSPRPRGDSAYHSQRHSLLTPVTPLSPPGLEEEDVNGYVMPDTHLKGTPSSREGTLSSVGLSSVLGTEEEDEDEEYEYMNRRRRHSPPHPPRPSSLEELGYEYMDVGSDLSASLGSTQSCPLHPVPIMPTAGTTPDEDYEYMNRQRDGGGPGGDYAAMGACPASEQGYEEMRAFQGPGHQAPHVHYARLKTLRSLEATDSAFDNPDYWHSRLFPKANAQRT
UniProt P21802, whole entry, looked up: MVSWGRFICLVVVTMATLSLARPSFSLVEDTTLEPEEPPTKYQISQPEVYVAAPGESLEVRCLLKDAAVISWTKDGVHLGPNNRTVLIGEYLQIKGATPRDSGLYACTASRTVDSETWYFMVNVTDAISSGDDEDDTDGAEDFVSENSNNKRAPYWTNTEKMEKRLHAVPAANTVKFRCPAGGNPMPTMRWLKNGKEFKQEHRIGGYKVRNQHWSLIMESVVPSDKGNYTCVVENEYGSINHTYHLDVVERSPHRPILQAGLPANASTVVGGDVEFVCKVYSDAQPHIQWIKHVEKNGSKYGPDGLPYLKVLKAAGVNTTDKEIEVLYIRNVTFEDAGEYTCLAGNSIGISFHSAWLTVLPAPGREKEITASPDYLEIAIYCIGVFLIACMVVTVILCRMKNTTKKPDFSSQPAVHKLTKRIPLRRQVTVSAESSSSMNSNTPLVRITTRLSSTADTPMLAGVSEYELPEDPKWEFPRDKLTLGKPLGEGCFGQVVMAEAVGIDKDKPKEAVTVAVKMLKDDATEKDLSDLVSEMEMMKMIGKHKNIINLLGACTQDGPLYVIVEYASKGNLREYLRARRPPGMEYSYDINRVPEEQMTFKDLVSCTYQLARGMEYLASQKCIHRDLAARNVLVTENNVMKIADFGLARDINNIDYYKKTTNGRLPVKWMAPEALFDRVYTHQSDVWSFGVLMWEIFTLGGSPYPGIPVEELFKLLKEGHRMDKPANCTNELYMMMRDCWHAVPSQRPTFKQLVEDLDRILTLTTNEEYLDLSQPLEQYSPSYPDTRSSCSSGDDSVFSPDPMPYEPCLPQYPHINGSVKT
UniProt P22607, whole entry, looked up: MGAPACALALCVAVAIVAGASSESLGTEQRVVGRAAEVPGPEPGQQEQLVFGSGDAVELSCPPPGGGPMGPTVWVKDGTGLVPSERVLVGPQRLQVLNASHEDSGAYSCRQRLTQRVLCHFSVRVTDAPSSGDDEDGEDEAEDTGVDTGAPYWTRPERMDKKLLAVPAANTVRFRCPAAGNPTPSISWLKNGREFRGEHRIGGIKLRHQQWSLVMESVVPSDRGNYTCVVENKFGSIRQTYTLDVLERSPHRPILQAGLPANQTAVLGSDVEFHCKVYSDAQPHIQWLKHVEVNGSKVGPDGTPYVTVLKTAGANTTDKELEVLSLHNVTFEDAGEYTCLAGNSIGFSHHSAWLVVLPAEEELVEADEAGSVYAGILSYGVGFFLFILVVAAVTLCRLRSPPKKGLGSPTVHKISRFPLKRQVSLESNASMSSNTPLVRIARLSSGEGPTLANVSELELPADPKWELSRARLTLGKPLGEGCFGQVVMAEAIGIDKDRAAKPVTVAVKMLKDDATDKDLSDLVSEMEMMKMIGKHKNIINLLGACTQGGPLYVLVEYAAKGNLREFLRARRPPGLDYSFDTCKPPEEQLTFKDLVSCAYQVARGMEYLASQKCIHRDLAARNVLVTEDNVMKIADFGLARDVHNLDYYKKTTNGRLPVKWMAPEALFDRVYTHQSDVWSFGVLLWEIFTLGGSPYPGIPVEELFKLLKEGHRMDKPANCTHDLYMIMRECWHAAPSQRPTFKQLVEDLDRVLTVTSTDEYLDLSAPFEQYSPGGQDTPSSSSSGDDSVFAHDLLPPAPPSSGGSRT
UniProt P06241, whole entry, looked up: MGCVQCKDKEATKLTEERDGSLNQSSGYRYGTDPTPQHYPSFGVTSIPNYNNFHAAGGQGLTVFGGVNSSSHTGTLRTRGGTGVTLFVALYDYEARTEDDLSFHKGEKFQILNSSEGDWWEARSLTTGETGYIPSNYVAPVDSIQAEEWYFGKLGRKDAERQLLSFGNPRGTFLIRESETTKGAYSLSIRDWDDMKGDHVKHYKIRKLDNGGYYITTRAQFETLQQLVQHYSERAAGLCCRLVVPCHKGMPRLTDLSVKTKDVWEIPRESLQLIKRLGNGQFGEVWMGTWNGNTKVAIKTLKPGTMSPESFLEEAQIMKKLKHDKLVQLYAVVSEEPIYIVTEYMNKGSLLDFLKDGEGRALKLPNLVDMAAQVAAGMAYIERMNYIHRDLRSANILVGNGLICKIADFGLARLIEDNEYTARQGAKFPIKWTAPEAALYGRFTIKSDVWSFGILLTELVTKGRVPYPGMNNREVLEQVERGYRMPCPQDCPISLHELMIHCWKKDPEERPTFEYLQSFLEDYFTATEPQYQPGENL
UniProt Q9Y616: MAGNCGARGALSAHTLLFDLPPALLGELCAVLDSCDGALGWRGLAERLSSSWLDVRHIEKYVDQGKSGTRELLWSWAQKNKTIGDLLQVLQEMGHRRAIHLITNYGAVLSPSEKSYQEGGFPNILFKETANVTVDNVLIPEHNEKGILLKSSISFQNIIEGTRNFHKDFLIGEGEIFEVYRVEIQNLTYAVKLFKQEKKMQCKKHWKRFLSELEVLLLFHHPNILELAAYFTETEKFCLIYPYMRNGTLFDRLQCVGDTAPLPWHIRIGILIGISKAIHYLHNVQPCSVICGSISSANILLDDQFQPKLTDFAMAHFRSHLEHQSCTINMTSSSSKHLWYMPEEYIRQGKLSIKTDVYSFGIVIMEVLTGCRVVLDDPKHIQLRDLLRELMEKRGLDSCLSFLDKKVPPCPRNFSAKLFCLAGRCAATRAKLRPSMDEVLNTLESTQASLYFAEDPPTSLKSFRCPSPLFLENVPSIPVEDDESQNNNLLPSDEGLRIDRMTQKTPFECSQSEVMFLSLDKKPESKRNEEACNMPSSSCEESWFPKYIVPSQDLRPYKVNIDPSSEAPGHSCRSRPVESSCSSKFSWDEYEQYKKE
UniProt P23458: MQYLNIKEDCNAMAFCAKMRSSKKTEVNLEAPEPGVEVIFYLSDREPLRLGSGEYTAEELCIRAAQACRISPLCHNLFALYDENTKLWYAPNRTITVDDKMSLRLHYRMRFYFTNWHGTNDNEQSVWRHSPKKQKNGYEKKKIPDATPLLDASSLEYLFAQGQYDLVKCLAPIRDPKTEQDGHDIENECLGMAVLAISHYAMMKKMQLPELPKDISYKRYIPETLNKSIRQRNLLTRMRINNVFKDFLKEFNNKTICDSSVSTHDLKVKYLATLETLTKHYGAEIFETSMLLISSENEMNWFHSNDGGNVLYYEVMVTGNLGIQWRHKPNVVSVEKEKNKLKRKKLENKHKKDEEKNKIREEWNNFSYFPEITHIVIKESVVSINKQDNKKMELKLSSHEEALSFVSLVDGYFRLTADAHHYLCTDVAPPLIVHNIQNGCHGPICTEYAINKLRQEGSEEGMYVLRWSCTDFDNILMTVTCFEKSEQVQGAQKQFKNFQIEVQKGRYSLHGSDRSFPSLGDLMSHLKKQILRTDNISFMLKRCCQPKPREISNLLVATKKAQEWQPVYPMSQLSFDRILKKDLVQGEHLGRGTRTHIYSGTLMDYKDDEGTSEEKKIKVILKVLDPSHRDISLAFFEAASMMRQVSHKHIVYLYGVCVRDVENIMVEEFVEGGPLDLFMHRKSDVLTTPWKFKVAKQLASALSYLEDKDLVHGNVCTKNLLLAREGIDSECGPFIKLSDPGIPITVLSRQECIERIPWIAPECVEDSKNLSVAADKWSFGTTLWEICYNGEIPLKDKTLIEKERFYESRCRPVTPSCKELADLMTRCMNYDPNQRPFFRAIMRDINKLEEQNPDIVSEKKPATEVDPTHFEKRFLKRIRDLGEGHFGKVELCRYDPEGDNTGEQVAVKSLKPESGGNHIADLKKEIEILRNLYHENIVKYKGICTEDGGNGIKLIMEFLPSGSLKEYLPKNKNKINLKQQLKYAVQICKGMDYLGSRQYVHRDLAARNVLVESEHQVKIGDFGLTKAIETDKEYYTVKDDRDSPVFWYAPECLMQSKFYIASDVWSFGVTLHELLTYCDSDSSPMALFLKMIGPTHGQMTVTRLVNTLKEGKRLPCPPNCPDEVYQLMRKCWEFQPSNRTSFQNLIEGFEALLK
UniProt P06239: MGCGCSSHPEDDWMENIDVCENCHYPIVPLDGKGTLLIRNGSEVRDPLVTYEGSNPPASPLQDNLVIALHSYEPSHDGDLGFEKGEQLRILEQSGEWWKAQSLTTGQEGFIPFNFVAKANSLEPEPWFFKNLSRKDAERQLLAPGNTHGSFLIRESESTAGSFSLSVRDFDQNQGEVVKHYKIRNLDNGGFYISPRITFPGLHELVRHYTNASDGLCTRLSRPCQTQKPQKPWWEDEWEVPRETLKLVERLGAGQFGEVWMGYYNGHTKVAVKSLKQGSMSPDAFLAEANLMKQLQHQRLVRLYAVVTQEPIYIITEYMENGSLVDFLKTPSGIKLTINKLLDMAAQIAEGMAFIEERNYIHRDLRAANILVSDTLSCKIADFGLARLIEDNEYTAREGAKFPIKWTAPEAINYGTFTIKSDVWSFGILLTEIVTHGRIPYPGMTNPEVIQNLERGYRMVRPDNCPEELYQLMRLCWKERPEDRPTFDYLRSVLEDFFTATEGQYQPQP
UniProt P53671: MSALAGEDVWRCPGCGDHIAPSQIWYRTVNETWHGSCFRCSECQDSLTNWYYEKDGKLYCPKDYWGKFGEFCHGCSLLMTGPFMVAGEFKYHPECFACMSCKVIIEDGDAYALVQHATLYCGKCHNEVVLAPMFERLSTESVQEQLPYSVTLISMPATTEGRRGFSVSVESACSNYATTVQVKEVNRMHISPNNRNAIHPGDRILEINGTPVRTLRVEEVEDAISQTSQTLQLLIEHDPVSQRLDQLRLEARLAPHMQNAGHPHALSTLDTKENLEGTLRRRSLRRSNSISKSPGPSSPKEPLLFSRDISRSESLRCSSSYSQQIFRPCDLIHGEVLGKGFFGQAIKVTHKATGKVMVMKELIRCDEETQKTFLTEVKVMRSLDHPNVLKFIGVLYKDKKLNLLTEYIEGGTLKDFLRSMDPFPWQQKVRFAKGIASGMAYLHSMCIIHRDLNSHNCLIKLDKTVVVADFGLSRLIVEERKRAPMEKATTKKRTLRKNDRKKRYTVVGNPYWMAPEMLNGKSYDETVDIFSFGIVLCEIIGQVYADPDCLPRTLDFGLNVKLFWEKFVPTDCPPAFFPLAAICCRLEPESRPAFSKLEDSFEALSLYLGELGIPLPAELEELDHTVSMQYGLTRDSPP

Row | SMILES | number of time points (EGFR_L861Q) | number of time points (EGFR_T790M) | number of time points (EPHA2) | number of time points (ERBB3) | number of time points [1] | number of time points (ERN1) | number of time points (FGFR1) | number of time points (FGFR2) | number of time points (FGFR3) | number of time points (FGR) | number of time points (FLT3) | number of time points (FYN) | number of time points (GSK3A) | number of time points (HER2) | number of time points (INSRR) | number of time points (IRAK3) | number of time points (JAK1) | number of time points (LCK) | number of time points (LIMK1) | number of time points (LIMK2)
1 | CCOC(=O)c1c(/C(C#N)=C\N)c2ccc(Cl)c(Cl)c2n1C (10 µM) | 0 | 0 | 0 | 0 | 0 | 0 | 0 | 0 | 0 | 0 | 0 | 0 | 0 | 0 | 0 | 0 | 0 | 0 | 0 | 0
2 | CCCCNc1nc(N)c2[nH]c(=O)n(Cc3ccc(C)nc3)c2n1 (10 µM) | 0 | 0 | 0 | 0 | 0 | 0 | 0 | 0 | 0 | 0 | 0 | 0 | 0 | 1 | 0 | 0 | 0 | 0 | 0 | 0
3 | O=Cc1cn(Cc2ccc(Cl)cc2)c2ccccc12 [Oncrasin-1] (10 µM) | 0 | 0 | 0 | 0 | 0 | 0 | 0 | 0 | 0 | 0 | 0 | 0 | 0 | 0 | 0 | 0 | 0 | 0 | 0 | 0
4 | Cc1[nH]ncc1-c1cc2nc([C@H]3CC4CCN3CC4)[nH]c(=O)c2s1 [(R)-Simurosertib] (10 µM) | 0 | 0 | 0 | 0 | 0 | 0 | 0 | 0 | 0 | 0 | 0 | 0 | 0 | 0 | 0 | 0 | 0 | 0 | 0 | 0
5 | C=CC(=O)N[C@H]1C=C(C)c2c(-c3cnc4ccccc4c3)c3c(N)ncnc3n2C1 (10 µM) | 0 | 0 | 0 | 0 | 0 | 0 | 0 | 0 | 0 | 0 | 0 | 0 | 0 | 0 | 0 | 0 | 0 | 0 | 0 | 0
6 | O=[N+]([O-])/C=C/c1ccc2c(c1)OCO2 (2.5 µM) | 0 | 0 | 0 | 0 | 0 | 0 | 0 | 0 | 0 | 0 | 0 | 0 | 0 | 0 | 0 | 0 | 0 | 0 | 0 | 0
7 | C[C@H]1CC[C@]2(NC1)O[C@H]1C[C@H]3[C@@H]4CC[C@H]5C[C@@H](O[C@@H]6O[C@H](CO)[C@H](O[C@@H]7O[C@H](CO)[C@@H](O)[C@H](O[C@@H]8OC[C@@H](O)[C@H](O)[C@H]8O)[C@H]7O[C@@H]7O[C@H](CO)[C@@H](O)[C@H](O)[C@H]7O)[C@H](O)[C@H]6O)CC[C@]5(C)[C@H]4CC[C@]3(C)[C@H]1[C@@H]2C [Tomatine] (2.5 µM) | 0 | 0 | 0 | 0 | 1 | 0 | 5 | 4 | 0 | 0 | 4 | 4 | 0 | 0 | 0 | 0 | 0 | 0 | 0 | 5
8 | O=C1C=CC[C@@H]2[C@H]3CCCN4CCC[C@@H](CN12)[C@@H]34 [Sophocarpine (monohydrate)] (2.5 µM) | 0 | 0 | 0 | 0 | 0 | 0 | 0 | 0 | 0 | 0 | 0 | 0 | 0 | 0 | 0 | 0 | 0 | 0 | 0 | 0
9 | CC1C(=O)OC2C(O)C34C5OC(=O)C3(OC3OC(=O)C(O)C34C(C(C)(C)C)C5O)C12O (configuration not stated) [Ginkgolide C] (10 µM) | 0 | 0 | 0 | 0 | 0 | 0 | 0 | 0 | 0 | 0 | 0 | 0 | 0 | 0 | 0 | 0 | 0 | 0 | 0 | 0
10 | COc1ccc2c(c1)/C(=C/c1cnc[nH]1)C(=O)N2 (2.5 µM) | 0 | 0 | 0 | 0 | 0 | – | 0 | 0 | 0 | 0 | 0 | 0 | 0 | 0 | 0 | 0 | 0 | 0 | 0 | 0
11 | C[C@H](CCC(=O)O)C[C@H](C)C[C@H](C)C(=O)/C=C(\O)[C@H](C)C[C@H](C)C/C=C/[C@@H](C)[C@@H](O)[C@@H](C)[C@@H](O)C[C@@H]1CC[C@@](C)([C@H]2CC[C@@](C)([C@@H](C)O)O2)O1 [Ionomycin (calcium)] (2.5 µM) | 0 | 0 | 5 | 0 | 0 | 2 | 0 | 0 | 0 | 0 | 0 | 0 | 0 | 0 | 0 | 0 | 0 | 0 | 0 | 0
12 | N#CC(C#N)=NNc1cccc(Cl)c1 (2.5 µM) | 2 | 0 | 0 | 0 | 3 | 0 | 0 | 0 | 0 | 0 | 0 | 0 | 0 | 0 | 0 | 0 | 0 | 0 | 0 | 0
13 | COc1cc2c(cc1F)C(c1ccccc1Cl)=Nc1c(n[nH]c1C)N2 (0.5 µM) | – | – | 0 | 0 | 0 | 0 | 0 | 0 | 0 | 0 | 0 | 0 | 0 | 0 | 0 | 0 | 0 | 0 | 0 | 0
14 | C[C@H]1CC[C@]2(NC1)O[C@H]1C[C@H]3[C@@H]4CC[C@H]5C[C@@H](O)CC[C@]5(C)[C@H]4CC[C@]3(C)[C@H]1[C@@H]2C [Tomatidine (hydrochloride)] (10 µM) | 0 | 0 | 0 | 0 | 0 | 0 | 0 | 0 | 0 | 0 | 0 | 0 | 0 | 0 | 0 | 0 | 0 | 0 | 0 | 0
15 | CN(C)C(=O)c1ccc(Cn2c(C(=O)O)cc3c(Br)cc(Sc4ccc(Cl)c(Cl)c4)cc32)cc1 [Rheb inhibitor NR1] (10 µM) | 0 | 0 | 0 | 0 | 0 | 0 | 0 | 0 | 0 | 0 | 0 | 0 | 0 | 0 | 0 | 0 | 0 | 0 | 0 | 0
16 | CC(=O)O[C@H]1[C@H]2[C@@H](OC(=O)Cc3ccccc3)[C@@H](C)C[C@]2(OC(C)=O)C(=O)/C(C)=C/[C@@H]2[C@H](CC[C@@]13CO3)C2(C)C [Euphorbiasteroid] (10 µM) | 0 | 0 | 0 | 0 | 0 | 0 | 0 | 0 | 0 | 0 | 0 | 0 | 0 | 0 | 0 | 0 | 0 | 0 | 0 | 0
17 | COc1ccc2c(c[n+](C)c3c4cc5c(cc4ccc23)OCO5)c1OC [Chelerythrine (chloride)] (10 µM) | 0 | 0 | 3 | 0 | 0 | 0 | 0 | 0 | 0 | 0 | 0 | 0 | 0 | 0 | 0 | 4 | 0 | 0 | 4 | 5
18 | CC(C)(C)c1cc(C=C(C#N)C#N)cc(Br)c1O (2.5 µM) | 0 | 0 | 0 | 0 | 0 | 0 | 0 | 0 | 0 | 0 | 0 | 0 | 0 | 0 | 0 | 0 | 0 | 0 | 0 | 0
19 | O=c1ccc2cc(O[C@@H]3O[C@H](CO)[C@@H](O)[C@H](O)[C@H]3O)c(O)cc2o1 [Esculin] (10 µM) | 0 | 0 | 0 | 0 | 0 | 0 | 0 | 0 | 0 | 0 | 0 | 0 | 0 | 0 | 0 | 0 | 0 | 0 | 0 | 0
20 | O=c1cc(O)c2ccccc2o1 [4-Hydroxycoumarin] (10 µM) | 0 | 0 | 0 | 0 | 0 | 0 | 0 | 0 | 0 | 0 | 0 | 0 | 0 | 0 | 0 | 0 | 0 | 0 | 0 | 0
21 | O=C(O)c1nn(Cc2ccc(Cl)cc2Cl)c2ccccc12 [Lonidamine] (10 µM) | 0 | 0 | 0 | 0 | 0 | 0 | 0 | 0 | 0 | 0 | 0 | 0 | 0 | 0 | 0 | 0 | 0 | 0 | 0 | 0
22 | CC(=O)c1c(O)c(C)c(O)c(Cc2c(O)c3c(c(C(=O)/C=C/c4ccccc4)c2O)OC(C)(C)C=C3)c1O [Rottlerin] (2 µM) | 0 | 0 | 0 | 0 | 0 | 0 | 0 | 0 | 0 | 0 | 0 | 0 | 0 | 0 | 0 | 0 | 0 | 0 | 0 | 0
23 | C[S+]([O-])/C=C/CCN=C=S (configuration not stated) [Sulforaphene] (10 µM) | 0 | 0 | 0 | 0 | 0 | 0 | 0 | 0 | 0 | 0 | 0 | 0 | 0 | 0 | 0 | 0 | 0 | 0 | 0 | 0

Some values from the list.
`C[C@H](CCC(=O)O)C[C@H](C)C[C@H](C)C(=O)/C=C(\O)[C@H](C)C[C@H](C)C/C=C/[C@@H](C)[C@@H](O)[C@@H](C)[C@@H](O)C[C@@H]1CC[C@@](C)([C@H]2CC[C@@](C)([C@@H](C)O)O2)O1` [Ionomycin (calcium)] (2.5 µM) – number of time points (GSK3A): 0
`O=C(O)c1nn(Cc2ccc(Cl)cc2Cl)c2ccccc12` [Lonidamine] (10 µM) – number of time points (FGFR3): 0

Source: the supplement of paper PMC12823440, “Inhibitors supercharge kinase turnover through native proteolytic circuits” (Nature, 2025)
